# According to the supplement of paper PMC8728848:
# The list shows a part of the results.
# B1: Protein L(A-C2) (Finegoldia magna), Q51912 (protein)
# chain: ADEPIDLEKLEEKRDKENVGNLPKFDNEVKDGSENPMAKYPDFDDEASTRFETENNEFEEKKVVSDNFFDQSEHPFVENKEETPETPETDSEEEVTIKANLIFANGSTQTAEFKGTFEKATSEAYAYADTLKKDNGEYTVDVADKGYTLNIKFAGKEKTPEEPKEEVTIKANLIYADGKTQTAEFKGTFEEATAEAYRYADALKKDNGEYTVDVADKGYTLNIKFAGKEKTPEEPKEEVTIKANLIYADGKTQTAEFKGTFEEATAEAYRYADLLAKENGKYTVDVADKGYTLNIKFAGKEKTPEEPKEEVTIKANLIYADGKTQTAEFKGTFAEATAEAYRYADLLAKENGKYTADLEDGGYTINIRFAGKKVDEKPEEKEQVTIKENIYFEDGTVQTATFKGTFAEATAEAYRYADLLSKEHGKYTADLEDGGYTINIRFAGKEEPEETPEKPEVQDGYASYEEAEAAAKEALKNDDVNKSYTIRQGADGRYYYVLSPVEAEEEKPEAQNGYATYEEAEAAAKKALENDPINKSYSIRQGADGRYYYVLSPVEAE
# Tests used:
# Assay in all cases: glycan array binding signal (z-score within array); higher = stronger binding
# Conditions in all cases: glycan notation: IUPAC condensed, linker removed
# [1] = molecular target: Man(a1-2)Man(a1-3)[Man(a1-2)Man(a1-6)]Man(a1-6)[Man(a1-2)Man(a1-2)Man(a1-3)]Man
# Summary of the method: (§1)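 The binding signal is a Z-score computed within each array. Data were drawn from 3228 arrays in the Consortium for Functional Glycomics database, restricted to those with a known protein sequence. Scores were averaged over arrays of the same protein sequence at different concentrations or buffers, and over linkers, and negative values can be taken as non-binding.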
# [2] = molecular target: Man(a1-2)Man(a1-3)[Man(a1-2)Man(a1-6)]Man(a1-6)[Man(a1-2)Man(a1-2)Man(a1-3)]Man(b1-4)GlcNAc(b1-4)GlcNAc
# Summary of the method: as §1
# [3] = molecular target: Man(a1-2)Man(a1-3)[Man(a1-6)]Man(a1-6)[Man(a1-2)Man(a1-3)]Man(b1-4)GlcNAc(b1-4)GlcNAc
# Summary of the method: as §1
# [4] = molecular target: Man(a1-2)Man(a1-6)[Man(a1-3)]Man(a1-6)[Man(a1-2)Man(a1-2)Man(a1-3)]Man
# Summary of the method: as §1
# [5] = molecular target: Man(a1-2)Man(a1-6)[Man(a1-3)]Man(a1-6)[Man(a1-2)Man(a1-2)Man(a1-3)]Man(b1-4)GlcNAc(b1-4)GlcNAc
# Summary of the method: as §1
# Man(a1-3)[Man(a1-6)]Man = molecular target: Man(a1-3)[Man(a1-6)]Man
# Summary of the method: as §1
# [6] = molecular target: Man(a1-3)[Man(a1-6)]Man(a1-6)[Man(a1-2)Man(a1-3)]Man(b1-4)GlcNAc(b1-4)GlcNAc
# Summary of the method: as §1
# [7] = molecular target: Man(a1-3)[Man(a1-6)]Man(a1-6)[Man(a1-3)]Man
# Summary of the method: as §1
# [8] = molecular target: Man(a1-3)[Man(a1-6)]Man(a1-6)[Man(a1-3)]Man(b1-4)GlcNAc(b1-4)GlcNAc
# Summary of the method: as §1
# [9] = molecular target: Man(a1-3)[Man(a1-6)]Man(b1-4)GlcNAc(b1-4)GlcNAc
# Summary of the method: as §1
# [10] = molecular target: Man(a1-3)[Man(a1-6)]Man(b1-4)GlcNAc(b1-4)[Fuc(a1-6)]GlcNAc
# Summary of the method: as §1
# Man(a1-6)Man = molecular target: Man(a1-6)Man
# Summary of the method: as §1
# Man(b1-4)GlcNAc = molecular target: Man(b1-4)GlcNAc
# Summary of the method: as §1
# MurNAc(b1-4)GlcNAc = molecular target: MurNAc(b1-4)GlcNAc
# Summary of the method: as §1
# Neu5Ac(a2-3)Gal = molecular target: Neu5Ac(a2-3)Gal
# Summary of the method: as §1
# [11] = molecular target: Neu5Ac(a2-3)Gal(b1-3)GalNAc
# Summary of the method: as §1
# [12] = molecular target: Neu5Ac(a2-3)Gal(b1-3)GalNAc(b1-3)Gal(a1-4)Gal(b1-4)Glc
# Summary of the method: as §1
# [13] = molecular target: Neu5Ac(a2-3)Gal(b1-3)GalNAc(b1-4)[Neu5Ac(a2-3)]Gal(b1-4)Glc
# Summary of the method: as §1
# [14] = molecular target: Neu5Ac(a2-3)Gal(b1-3)GalNAc(b1-4)[Neu5Ac(a2-8)Neu5Ac(a2-3)]Gal(b1-4)Glc
# Summary of the method: as §1
# [15] = molecular target: Neu5Ac(a2-3)Gal(b1-3)GalNAc6S
# Summary of the method: as §1
# [16] = molecular target: Neu5Ac(a2-3)Gal(b1-3)GlcNAc
# Summary of the method: as §1
# [17] = molecular target: Neu5Ac(a2-3)Gal(b1-3)GlcNAc(b1-2)Man
# Summary of the method: as §1
# [18] = molecular target: Neu5Ac(a2-3)Gal(b1-3)GlcNAc(b1-2)Man(a1-3)[GlcNAc(b1-4)][Neu5Ac(a2-3)Gal(b1-3)GlcNAc(b1-2)Man(a1-6)]Man(b1-4)GlcNAc(b1-4)GlcNAc
# Summary of the method: as §1
# [19] = molecular target: Neu5Ac(a2-3)Gal(b1-3)GlcNAc(b1-2)Man(a1-3)[Neu5Ac(a2-3)Gal(b1-3)GlcNAc(b1-2)Man(a1-6)]Man(b1-4)GlcNAc(b1-4)GlcNAc
# Summary of the method: as §1
# [20] = molecular target: Neu5Ac(a2-3)Gal(b1-3)GlcNAc(b1-3)Gal(b1-3)GlcNAc
# Summary of the method: as §1
# [21] = molecular target: Neu5Ac(a2-3)Gal(b1-3)GlcNAc(b1-3)Gal(b1-4)GlcNAc
# Summary of the method: as §1
# [22] = molecular target: Neu5Ac(a2-3)Gal(b1-3)GlcNAc(b1-3)GalNAc
# Summary of the method: as §1
# [23] = molecular target: Neu5Ac(a2-3)Gal(b1-3)GlcNAc(b1-4)Gal(b1-4)Glc
# Summary of the method: as §1
# [24] = molecular target: Neu5Ac(a2-3)Gal(b1-3)GlcNAc(b1-6)GalNAc
# Summary of the method: as §1
# [25] = molecular target: Neu5Ac(a2-3)Gal(b1-3)GlcNAc6S
# Summary of the method: as §1
binder,measurement,setting,value
B1,glycan array binding signal (z-score),[1],-0.567
same,glycan array binding signal (z-score),[2],0.874
same,glycan array binding signal (z-score),[3],-0.761
same,glycan array binding signal (z-score),[4],1.4
same,glycan array binding signal (z-score),[5],-1.51
same,glycan array binding signal (z-score),Man(a1-3)[Man(a1-6)]Man,-0.723
same,glycan array binding signal (z-score),[6],4.98
same,glycan array binding signal (z-score),[7],-0.409
same,glycan array binding signal (z-score),[8],1.25
same,glycan array binding signal (z-score),[9],0.154
same,glycan array binding signal (z-score),[10],0.15
same,glycan array binding signal (z-score),Man(a1-6)Man,0.219
same,glycan array binding signal (z-score),Man(b1-4)GlcNAc,0.002
same,glycan array binding signal (z-score),MurNAc(b1-4)GlcNAc,-0.844
same,glycan array binding signal (z-score),Neu5Ac(a2-3)Gal,-0.609
same,glycan array binding signal (z-score),[11],0.418
same,glycan array binding signal (z-score),[12],1.65
same,glycan array binding signal (z-score),[13],-1.08
same,glycan array binding signal (z-score),[14],0.726
same,glycan array binding signal (z-score),[15],-0.684
same,glycan array binding signal (z-score),[16],-0.31
same,glycan array binding signal (z-score),[17],3.79
same,glycan array binding signal (z-score),[18],-0.605
same,glycan array binding signal (z-score),[19],-0.023
same,glycan array binding signal (z-score),[20],-0.399
same,glycan array binding signal (z-score),[21],-0.808
same,glycan array binding signal (z-score),[22],0.746
same,glycan array binding signal (z-score),[23],-1.04
same,glycan array binding signal (z-score),[24],0.183
same,glycan array binding signal (z-score),[25],-0.165

# As a short view, part of the list above.
binder,measurement,setting,value
B1,glycan array binding signal (z-score),[8],1.25
same,glycan array binding signal (z-score),[9],0.154
same,glycan array binding signal (z-score),[10],0.15
same,glycan array binding signal (z-score),Man(a1-6)Man,0.219
same,glycan array binding signal (z-score),Man(b1-4)GlcNAc,0.002
same,glycan array binding signal (z-score),MurNAc(b1-4)GlcNAc,-0.844
same,glycan array binding signal (z-score),Neu5Ac(a2-3)Gal,-0.609
same,glycan array binding signal (z-score),[11],0.418
